Some entries share one result that the patent states for a list of compounds.
Legend:
ARPE-19 cells = assay: ARPE-19 cholesterol import (BODIPY-Cholesterol); type: cell-based, human; details: ARPE-19, 10 μM peptide, 2 hours
Experimental: FIG. 12 and FIGS. 14A-14B illustrate the results of ARPE-19 cholesterol import testing. ARPE-19 cells were seeded on 96-well plates at 25,000 cells per well and grown to confluence. A 2× solution of 500 μM DMPC and 50 μM BODIPY-Cholesterol were prepared in serum free DMEM: F12. Peptides were diluted to 20 μM in serum free DMEM: F12 (a 2× solution). Peptides were added to lipid solution in equal parts (60 μL each) and were incubated for 1 hour at 37° C. ARPE-19 cells were serum starved in serum free DMEM: F12 for 1 hour at 37° C. Peptide: Lipid complexes (100 μL total volume per well) were transferred to ARPE-19 cells for 2 hours at 37° C. Cells were washed, fixed, and intracellular fluorescence was read on Promega GloMax at 475 nm excitation, 500-550 emission. Fluorescence values were background corrected from no treatment conditions. Data are presented as mean+SD for two runs.
FIG. 15 illustrates ARPE-19 cholesterol import titration curves for a subset of the peptides. […] Cells were washed, fixed, and intracellular fluorescence was read on Promega GloMax at 475 nm excitation, 500-550 emission. Fluorescence values were background corrected from no treatment conditions. […]
ARPE-19 cells were seeded on 96-well plates at 25,000 cells per well and grown to confluence. […] Cells were washed, fixed, and intracellular fluorescence was read on Promega GloMax at 475 nm excitation, 500-550 emission. […]

HepG2 cells = assay: HepG2 cholesterol import (BODIPY-Cholesterol); type: cell-based; details: HepG2, 10 μM peptide, 2 hours

Molecule	cholesterol import activity (fluorescence values above baseline) (ARPE-19 cells)	cholesterol import activity (cellular fluorescence values above baseline) (HepG2 cells)
T-013: therapeutic peptide (peptide) TRARLSKELQAAQARLGADMEDVRGRLVQYRGEVQAMLGQSTEELRVRLASHLRKLRKRLLRDADDLQKRLAVYQA	at least 10 RFU	≥ 20 RFU
T-119: therapeutic peptide (peptide) DVKRLFKEFTAAMARFARKAEDIRGNFDQYFDEVFAMLGQSTEELRVRLASHLRKLRKRLLRDADDLQKRLAVYQA	at least 10 RFU	–
